Some results were stated once for a whole list of compounds, not compound by compound.
Columns and labels:
Format in all cases: in vivo
[1] = system: Culexpipienspallens; test: Test Example 9: spray knockdown test on imagoes of Culex pipiens pallens (0.5% w/v); details: 0.5% w/v in isopropyl alcohol/kerosine=1/9, 0.5 mL sprayed, ten imagoes
[2] = system: Musca domestica; test: Test Example 2: spray knockdown test on imagoes of Musca domestica; details: 2.0% w/v in isopropyl alcohol/kerosine=1/9, 0.5 mL sprayed, ten imagoes of Musca domestica
[3] = system: Culexpipienspallens; test: Test Example 3: spray knockdown test on imagoes of Culex pipiens pallens (0.1% w/v); details: 0.1% w/v in isopropyl alcohol/kerosine=1/9, 0.5 mL sprayed, ten imagoes
[4] = system: Culexpipienspallens; test: Test Example 4: larvicidal test on last instar larvae of Culex pipiens pallens in water; details: active ingredient concentration 3.5 ppm in water, thirty last instar larvae, after 1 day

Row | Compound | knockdown ratio of the test vermin within 15 minutes [2] | knockdown ratio of the test vermin within 15 minutes [3] | further results
1 | CCCOc1onc(C(=O)NCC(C)(C)N(C)C)c1C [(72)] | – | – | knockdown ratio of the test vermin within 15 minutes [1]: ≥ 80%
2 | CCCCc1onc(C(=O)NCC(C)(C)N(C)C)c1C [(74)] | – | – | knockdown ratio of the test vermin within 15 minutes [1]: ≥ 80%
3 | CCCCc1onc(C(=O)NCC(C)(C)CN(C)C)c1C [(75)] | – | – | knockdown ratio of the test vermin within 15 minutes [1]: ≥ 80%
4 | CC(C)CNC(=O)c1cc(COCc2ccccc2)on1 [compound (1)] | ≥ 80% | – | –
5 | CC(C)C(C)NC(=O)c1cc(COCc2ccccc2)on1 (centres unmarked) [compound (2)] | ≥ 80% | ≥ 80% | –
6 | COC(C)CNC(=O)c1cc(COCc2ccccc2)on1 (centres unmarked) [compound (4)] | ≥ 80% | ≥ 80% | –
7 | COCC(C)(C)CNC(=O)c1cc(COCc2ccccc2)on1 [compound (7)] | – | – | dead vermin ratio [4]: ≥ 91%
8 | COC(C)(C)CNC(=O)c1cc(COCc2ccccc2)on1 [compound (8)] | ≥ 80% | – | –
9 | COC(CNC(=O)c1cc(COCc2ccccc2)on1)OC [compound (11)] | ≥ 80% | ≥ 80% | –
10 | COCC(COC)NC(=O)c1cc(COCc2ccccc2)on1 [compound (12)] | – | ≥ 80% | –
11 | COC(=O)C(NC(=O)c1cc(COCc2ccccc2)on1)C(C)C (centres unmarked) [compound (19)] | – | – | dead vermin ratio [4]: ≥ 91%
12 | CC(C)CNC(=O)c1cc(COCc2ccc3ccccc3c2)on1 [compound (20)] | – | ≥ 80% | –
13 | COC(C)CNC(=O)c1cc(COCc2ccc3ccccc3c2)on1 (centres unmarked) [compound (21)] | ≥ 80% | ≥ 80% | –
